No constants are given. Whether binding was seen depends on the method and setting. Some binding calls cover weakened binding; strength is not graded here. Tags and fused reporters may be left off the sequences shown.
Molecular target: T1, human Syndecan-4 (human) (UniProt P31431)
T1 sequence (chain, glycosaminoglycan chains (GAGs)): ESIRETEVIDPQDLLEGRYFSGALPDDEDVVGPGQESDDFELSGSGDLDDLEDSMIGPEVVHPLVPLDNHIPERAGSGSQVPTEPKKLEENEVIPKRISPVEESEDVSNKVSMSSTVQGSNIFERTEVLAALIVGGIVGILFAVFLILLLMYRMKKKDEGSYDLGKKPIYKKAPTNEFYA
Assay: cell surface binding, AP fusion on transfected HEK293T cells

- binding: binds
B1: hRspo3TSP-AP (signal peptide fused to the TSP domain aa146-209 of human Rspondin-3, followed by AP tag) (ligand, not shown: large carriers)
chain: VHCEVSEWNPWSPCTKKGKTCGFKRGTETRVREIIQHPSAKGNLCPPTNETRKCTVQRKKCQKG
